Measurements reported in PubChem BioAssay AID1259308 (NCATS, 2017).

- Assay: 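Genes whose loss raises luciferase production in HEK293 cells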 (primary screen)
- Cell system: human HEK293 embryonic kidney cells stably expressing firefly luciferase (HEK-CMV-Luc2-Hygro)
- Reagents: single siRNA against human genes, 0.8 pmol siRNA per well
- Duration: 72 h
- Measurement: 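Luciferase light (ONE-Glo) measured on one replicate plate set and viability (CellTiter-Glo) on the other, scaled to a negative control siRNA, with robust z-scores and luciferase per cell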
- Scale: total luciferase, z-score and total luciferase, % of control: higher = more reporter protein produced; luciferase per cell, z-score: higher = more reporter output per viable cell; viable cells, % of control: higher = more viable cells
- Active means: 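An siRNA counts as active if its total luciferase robust z-score exceeds 3; genes with two or more such siRNAs out of three were retested with fresh siRNAs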
- Meaning of the calls: active = raised luciferase; inactive = no rise
The deposit covers about 59,000 reagents; below is a part drawn at random. About 1,510 of all reagents (2.6%) were called active. 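Calls use total luciferase alone and ignore viability, so some active siRNAs may act by altering cell number.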 Reagents against one gene are numbered here.

The first 2 records as a preview:
target	siRNA no.	total luciferase, z-score	total luciferase, % of control	luciferase per cell, z-score	viable cells, % of control	activity call
CD300E	1	-1.08	60.4	-1.1	90.1	inactive
CD300E	2	0.684	95.5	0.639	90.2	inactive

The list itself, from the first entry:
target	siRNA no.	total luciferase, z-score	total luciferase, % of control	luciferase per cell, z-score	viable cells, % of control	activity call
CD300E	1	-1.08	60.4	-1.1	90.1	inactive
CD300E	2	0.684	95.5	0.639	90.2	inactive
CD300E	3	-0.83	65.4	-0.976	94.5	inactive
PLEKHN1	1	-0.138	79.1	-0.701	106	inactive
PLEKHN1	2	-0.104	79.8	0.15	85.8	inactive
PLEKHN1	3	-1.14	59.1	-0.773	81	inactive
MBTPS2	1	-0.0808	80.3	-0.875	113	inactive
MBTPS2	2	0.126	84.4	-0.297	102	inactive
MBTPS2	3	0.436	90.5	0.509	88.5	inactive
PCID2	1	-0.436	73.2	-0.162	85.4	inactive
PCID2	2	-0.507	71.8	-0.734	97.3	inactive
PCID2	3	-0.234	77.2	0.643	72.9	inactive
CDK5RAP3	1	2.21	126	0.788	114	inactive
CDK5RAP3	2	-0.38	74.3	-0.223	88.1	inactive
CDK5RAP3	3	-0.128	79.3	-0.0516	89.9	inactive
MAPK7	1	-1.52	51.6	-1.66	89.2	inactive
MAPK7	2	0.0727	83.3	-0.426	104	inactive
MAPK7	3	-0.621	69.5	-0.26	83.2	inactive
DDX54	1	-1.63	49.4	-1.4	79.7	inactive
DDX54	2	1.63	114	1.45	87.1	inactive
DDX54	3	-1.34	55.3	-1.28	86.5	inactive
PDPN	1	1.26	107	1.02	91.5	inactive
PDPN	2	-0.502	71.9	-0.813	99.5	inactive
PDPN	3	0.996	102	1.28	81.2	inactive
PWWP2B	1	-2.03	41.5	-2.91	99.8	inactive
PWWP2B	2	1.68	115	0.88	102	inactive
PWWP2B	3	0.361	89.1	0.712	82.5	inactive
WDR89	1	-1.41	53.9	-0.345	66	inactive
WDR89	2	2.57	133	2.5	76.9	inactive
WDR89	3	0.929	100	0.313	103	inactive
CCND2	1	-0.0839	80.2	-0.738	109	inactive
CCND2	2	0.787	97.5	0.604	93	inactive
CCND2	3	1.68	115	0.609	110	inactive
WDR18	1	2.79	137	3.14	67.2	inactive
WDR18	2	-0.793	66.1	-0.975	95.5	inactive
WDR18	3	-0.744	67.1	-0.512	85.8	inactive
GRIA3	1	-0.553	70.9	-0.497	90.3	inactive
GRIA3	2	-2.79	26.4	-3.49	74.1	inactive
GRIA3	3	-0.764	66.7	-1.08	99	inactive
